Assay results: doi:10.1101/808311
Like-named read-outs stand apart in the source and are kept apart here. Results are given in words; binding and its absence hold for the method and conditions named. Binding seen in cells or lysates may run through a third protein. A result given as binding can be weak or reduced; the word gives no strength.

Sequences of proteins named here, by UniProt entry; tags and fusion partners are left off. A change or cut given only in a name is not applied to a line headed by its entry.
UniProt Q96B77: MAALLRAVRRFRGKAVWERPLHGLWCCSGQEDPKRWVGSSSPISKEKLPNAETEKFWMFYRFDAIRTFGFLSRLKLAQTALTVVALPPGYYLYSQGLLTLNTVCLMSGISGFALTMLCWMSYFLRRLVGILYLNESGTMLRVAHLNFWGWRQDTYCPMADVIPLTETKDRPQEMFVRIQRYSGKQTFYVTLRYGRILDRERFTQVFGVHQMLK
UniProt P03891: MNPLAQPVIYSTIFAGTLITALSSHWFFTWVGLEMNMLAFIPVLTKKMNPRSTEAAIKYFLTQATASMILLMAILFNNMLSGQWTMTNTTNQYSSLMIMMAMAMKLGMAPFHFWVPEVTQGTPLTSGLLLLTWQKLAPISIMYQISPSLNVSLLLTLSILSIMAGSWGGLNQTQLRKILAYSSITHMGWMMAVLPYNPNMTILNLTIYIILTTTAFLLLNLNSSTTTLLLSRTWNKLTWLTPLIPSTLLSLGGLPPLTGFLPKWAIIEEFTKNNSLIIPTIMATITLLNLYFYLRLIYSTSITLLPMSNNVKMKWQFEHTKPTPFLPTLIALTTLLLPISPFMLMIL
UniProt P03897: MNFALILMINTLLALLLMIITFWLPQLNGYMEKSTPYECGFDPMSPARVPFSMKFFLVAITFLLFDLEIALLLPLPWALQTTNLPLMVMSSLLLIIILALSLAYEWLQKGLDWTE
UniProt P03901: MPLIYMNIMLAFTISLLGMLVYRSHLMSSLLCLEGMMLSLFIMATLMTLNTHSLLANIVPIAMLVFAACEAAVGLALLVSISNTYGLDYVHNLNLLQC

Experiments:
Test in all cases: co-IP
[1] = target: TMEM186 with a C-terminal Flag epitope (human) (UniProt Q96B77)
[2] = target: TMEM186 with a C-terminal Flag epitope (human) (UniProt Q96B77); remark: listed apart in the source
[3] = target: TMEM186 with a C-terminal Flag epitope (human) (UniProt Q96B77); remark: listed apart in the source
[4] = target: TMEM186 with a C-terminal Flag epitope (human) (UniProt Q96B77); remark: listed apart in the source

| binding [3] | binding [4] | Molecule | binding [1] | binding [2] |
| --- | --- | --- | --- | --- |
| – | – | ND2, newly synthesised mtDNA-encoded complex I subunit (HEK293T-derived cells) (from UniProt P03891 1-347) | binds | – |
| – | – | ND3, newly synthesised mtDNA-encoded complex I subunit (HEK293T-derived cells) (from UniProt P03897 1-115) | binds | binds |
| – | – | ND4L, newly synthesised mtDNA-encoded complex I subunit (HEK293T-derived cells) (from UniProt P03901 1-98) | binds | – |
| binds | binds | ACAD9 (endogenous, HEK293T-derived cells) (protein, UniProt Q9H845 38-621) AFAKELFLGKIKKKEVFPFPEVSQDELNEINQFLGPVEKFFTEEVDSRKIDQEGKIPDETLEKLKSLGLFGLQVPEEYGGLGFSNTMYSRLGEIISMDGSITVTLAAHQAIGLKGIILAGTEEQKAKYLPKLASGEHIAAFCLTEPASGSDAASIRSRATLSEDKKHYILNGSKVWITNGGLANIFTVFAKTEVVDSDGSVKDKITAFIVERDFGGVTNGKPEDKLGIRGSNTCEVHFENTKIPVENILGEVGDGFKVAMNILNSGRFSMGSVVAGLLKRLIEMTAEYACTRKQFNKRLSEFGLIQEKFALMAQKAYVMESMTYLTAGMLDQPGFPDCSIEAAMVKVFSSEAAWQCVSEALQILGGLGYTRDYPYERILRDTRILLIFEGTNEILRMYIALTGLQHAGRILTTRIHELKQAKVSTVMDTVGRRLRDSLGRTVDLGLTGNHGVVHPSLADSANKFEENTYCFGRTVETLLLRFGKTIMEEQLVLKRVANILINLYGMTAVLSRASRSIRIGLRNHDHEVLLANTFCVEAYLQNLFSLSQLDKYAPENLDEQIKKVSQQILEKRAYICAHPLDRTC | – | – |
